One molecule from patent publication US10221215 can be followed below.

No constants are given. Whether binding was seen depends on the method and setting. Binding calls can cover weak binding; strength is not graded here.

In this assay the target is N-terminal His6-tagged Ras1-166 (human). Briefly: fluorescence polarization, direct binding, Ras titrated into 15 nM labelled peptide. (In general: In fluorescence polarisation assays a small probe gives low polarisation when free and higher when bound to something large.)

FEGIYRLELLKAEEAN (fluorescein label (site of attachment shown only in a drawing)) [7^uncon-Flu]: the binding result is on record as “binds”.
